Measurements published in publication PMC12646145.
No constants are given. Whether binding was seen depends on the method and setting. Binding can be weak; no strength is given.

Target: T1, cathepsin G (UniProt P08311)
T1 sequence: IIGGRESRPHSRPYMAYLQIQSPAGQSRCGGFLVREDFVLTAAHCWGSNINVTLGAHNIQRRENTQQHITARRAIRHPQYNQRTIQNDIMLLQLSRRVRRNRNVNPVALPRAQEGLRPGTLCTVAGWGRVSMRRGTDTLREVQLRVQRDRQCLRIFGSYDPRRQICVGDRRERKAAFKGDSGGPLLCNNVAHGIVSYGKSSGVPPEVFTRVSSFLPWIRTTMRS
Experiment: SDS-PAGE of SERPIN-protease inhibitory complex; 0.9 uM protease and 2.25 uM SERPIN (2:5 molar ratio), 22 C, 300 rpm; chymotrypsin 2 min, trypsin 1 min, cathepsin G 5 min; quenched with reducing Laemmli buffer, boiled 95 C 10 min; complex seen as a band of higher molecular weight than SERPIN or protease; both purified

Substance | binding
SERPINA3-8 (Neotoma macrotis SERPINA3 paralog) | binds
SERPINA3-11 (Neotoma macrotis SERPINA3 paralog) | no binding (tested: 2.25 uM SERPIN, 0.9 uM protease)
SERPINA3-1 (Neotoma macrotis SERPINA3 paralog) | no binding (tested: 2.25 uM SERPIN, 0.9 uM protease)
SERPINA3-5 (Neotoma macrotis SERPINA3 paralog) | binds
SERPINA3-4 (Neotoma macrotis SERPINA3 paralog) | no binding (tested: 2.25 uM SERPIN, 0.9 uM protease)
SERPINA3-10 (Neotoma macrotis SERPINA3 paralog) | binds
SERPINA3-3 (Neotoma macrotis SERPINA3 paralog), E. coli-expressed | binds
SERPINA3-2 (Neotoma macrotis SERPINA3 paralog) | no binding (tested: 2.25 uM SERPIN, 0.9 uM protease)
SERPINA3-7 (Neotoma macrotis SERPINA3 paralog) | no binding (tested: 2.25 uM SERPIN, 0.9 uM protease)
SERPINA3-9 (Neotoma macrotis SERPINA3 paralog) | no binding (tested: 2.25 uM SERPIN, 0.9 uM protease)
SERPINA3-6 (Neotoma macrotis SERPINA3 paralog) | no binding (tested: 2.25 uM SERPIN, 0.9 uM protease)
SERPINA3-12 (Neotoma macrotis SERPINA3 paralog) | binds
